{"source": "PubChem BioAssay AID504467", "about": "(National Center for Advancing Translational Sciences (NCATS), 2011)", "note": "Screen size: about 330,000 compounds; about 7,700 (2.3%) were called active. Inconclusive results, whose numbers are uncertain, are shown with a selection of clear calls. The call rests on the fitted dose curve; in most records, active means well fitted inhibition curve with a large enough effect; inconclusive means small, poorly fitted or top-dose-only effect, or effect the other way; inactive means flat fitted curve, though single readings scatter. Where the call is inconclusive, the potency comes from a doubtful curve fit. Potency means the concentration at half of the fitted maximal effect.", "data": [{"test": "qHTS screen for small molecules that inhibit ELG1-dependent DNA repair in human embryonic kidney (HEK293T) cells expressing luciferase-tagged ELG1; further: nearly all actives have a fitted effect of over 55% in size", "conditions": "HEK293T ELG1-luciferase reporter, luminescence, 16 h, DNA damage induced by 5-fluorouridine; series mostly up to 46.1 µM", "how_it_was_run": "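Step one: seed 2,000 cells per well. Step two: pin-transfer compound or DMSO alongside 5-fluorouridine. Step three: incubate 16 hr, 37 °C, 5% CO2. Step four: add ONE-Glo, wait 30 min, read luminescence.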", "values": [{"smiles": "COc1cc(-c2nnc(SCC3(c4ccccc4)OCCO3)o2)cc(OC)c1OC", "Potency": "inconclusive: 23.1 µM [inhibitor, partial curve, poor fit]"}, {"smiles": "Cc1c(C(=O)Nc2ccc(F)cc2)oc2ccc(S(=O)(=O)N3CC(C)CC(C)C3)cc12", "note": "(centres undefined)", "Potency": "inconclusive: 13 µM [inhibitor, partial curve, poor fit]"}, {"smiles": "CC1=NN(C(N)=S)C(=O)C1N=Nc1c(Cl)cc([N+](=O)[O-])cc1Cl", "note": "(centres undefined)", "Potency": "inconclusive: 20.6 µM [activator, partial curve]"}, {"smiles": "Cc1ccc(N(C(=O)c2ccccc2Cl)C2=NC(C)CS2)c(C)c1", "note": "(centres undefined)", "Potency": "inconclusive: 14.6 µM [activator, single point]"}, {"smiles": "CC1CCN(C(=O)c2ccc3ccccc3c2)CC1", "Potency": "inconclusive: 16.4 µM [activator, partial curve]"}, {"smiles": "CCOc1cccc(C(=O)Nc2ccc3ccccc3c2)c1", "Potency": "inconclusive: 0.411 µM [activator, full curve]"}, {"smiles": "O=C(Nc1nc2ccccc2n1CCN1CCOCC1)c1ccc(COc2ccccc2Br)o1", "Potency": "active: 20.6 µM"}, {"smiles": "O=C(NC1CCCCC1)c1cccc2c1C(=O)c1ccc(-c3ccc(OC(F)(F)F)cc3)cc1S2(=O)=O", "Potency": "inactive"}, {"smiles": "O=[N+]([O-])c1ccc(C(O)CN2CCN(C/C=C/c3ccccc3)CC2)cc1", "note": "(centres undefined)", "Potency": "inconclusive: 9.2 µM [inhibitor, partial curve]"}, {"smiles": "Cc1cc(C)nc(NC(=O)/C=C/c2cccs2)c1", "Potency": "inconclusive: 20.6 µM [activator, partial curve]"}, {"smiles": "COc1ccc(C(=O)NC(=O)N2CCCCC2)cc1", "Potency": "inconclusive: 18.4 µM [activator, partial curve, poor fit]"}, {"smiles": "COc1cccc(C(=O)Nc2ccc(-c3nc4ccccc4o3)c(O)c2)c1", "Potency": "inconclusive: 29.1 µM [inhibitor, single point]"}, {"smiles": "COc1cccc(-c2nc(NC(C)C)c3ccccc3n2)c1O", "Potency": "active: 5.17 µM"}, {"smiles": "c1ccc(C2CNCc3c2ccc2ccccc32)cc1", "note": "(centres undefined)", "Potency": "inconclusive: 11.6 µM [inhibitor, partial curve, poor fit]"}, {"smiles": "NS(=O)(=O)c1ccc(NC(=O)COC(=O)C2CC2)cc1", "Potency": "inactive"}, {"smiles": "COC(=O)c1ccc(NC(=S)N2CCCC2)cc1", "Potency": "inconclusive: 32.6 µM [activator, partial curve, poor fit]"}, {"smiles": "CC(C)NC(=O)c1cnc(N2CCN(c3ccccn3)CC2)c2ccccc12", "Potency": "inconclusive: 18.4 µM [inhibitor, single point]"}, {"smiles": "CCCCC1=CC2=C(c3ccco3)C(=O)C(C)(OC(=O)c3ccc(OC)cc3)C(=O)C2=CN1Cc1ccc(OC)cc1", "note": "(centres undefined)", "Potency": "inactive"}, {"smiles": "O=C(Nc1sc2c(c1C(=O)O)CCCC2)c1ccc(F)cc1", "Potency": "inconclusive: 13 µM [activator, partial curve]"}, {"smiles": "CN=C1NN=C(c2cc(C)n(-c3ccc(Cl)cc3)c2C)CS1", "Potency": "inconclusive: 5.8 µM [activator, full curve]"}, {"smiles": "COCCN(C(=O)CCl)C(C(=O)NC1CCCCC1)c1ccccc1C", "note": "(centres undefined)", "Potency": "active: 20.6 µM"}, {"smiles": "CCOc1ccc(-c2n[nH]c(=S)o2)cc1", "Potency": "inconclusive: 29.1 µM [activator, single point]"}, {"smiles": "CCCSc1nc(C)cc(C)c1S(C)(=O)=O", "Potency": "inactive"}, {"smiles": "CCOC(=O)C(=CNc1cccnc1Oc1ccc(C)c2c1CCC2)C(=O)OCC", "Potency": "active: 14.6 µM"}, {"smiles": "CCc1ccc(OCC(=O)O/N=C(\\N)c2ccncc2)cc1", "Potency": "inconclusive: 18.3 µM [activator, partial curve]"}, {"smiles": "O=C(NCC(c1ccco1)N1CCc2ccccc21)c1cccc(F)c1", "note": "(centres undefined)", "Potency": "inactive"}, {"smiles": "Cn1c(CNC(=O)c2ccco2)nnc1SCC(=O)Nc1ccc(Cl)cc1", "Potency": "inactive"}, {"smiles": "CCSc1nnc(NC(=O)C(CC)Oc2ccccc2)s1", "note": "(centres undefined)", "Potency": "inconclusive: 18.4 µM [inhibitor, single point]"}, {"smiles": "CSCCC(NC(=O)COc1ccccc1)C(=O)N(C)Cc1ccc(Cl)cc1Cl", "note": "(centres undefined)", "Potency": "inconclusive: 16.4 µM [inhibitor, single point]"}, {"smiles": "CC(C)CCN(C(=S)Nc1cccc(F)c1)C1CCN(C(C)C)CC1", "Potency": "inconclusive: 29.1 µM [inhibitor, single point]"}, {"smiles": "CC(=O)Nc1ccc(SCC(=O)c2c(N)n(Cc3ccccc3)c(=O)n(C)c2=O)cc1", "Potency": "inconclusive: 20.6 µM [inhibitor, single point]"}, {"smiles": "CC(C)Sc1cc(N2CCOCC2)nc(-c2ccc(Cl)cc2)n1", "Potency": "inactive"}, {"smiles": "CCOC(=O)c1[nH]c2ccc(C(=O)OC)cc2c1C(=O)OCC", "Potency": "inconclusive: 25.9 µM [inhibitor, single point]"}, {"smiles": "CC(C)=CCCC(C)CCO", "note": "(centres undefined)", "Potency": "inactive"}, {"smiles": "O=C(NCC1CCCO1)c1ccc(NC(=O)c2cc(F)c(F)cc2Cl)cc1", "note": "(centres undefined)", "Potency": "inconclusive: 29.1 µM [inhibitor, single point]"}, {"smiles": "COc1cc(/C=N/NC(=O)c2ccncc2)ccc1OCCN1CCCCC1", "Potency": "inconclusive: 7.31 µM [activator, partial curve, poor fit]"}, {"smiles": "CC(C)CN(CC(C)C)CC(O)COc1ccc([N+](=O)[O-])cc1", "note": "(centres undefined)", "Potency": "inactive"}, {"smiles": "COc1ccc2nc(/C=N/NC(=O)CCNC(=O)OC(C)(C)C)ccc2c1", "Potency": "inconclusive: 25.9 µM [activator, single point]"}, {"smiles": "CCCCc1ccc(NC(=O)N[C@H](C(=O)O)C(C)C)cc1", "Potency": "inconclusive: 6.51 µM [activator, full curve]"}, {"smiles": "COc1ccc(C(=O)Nc2ccccc2C(=O)N/N=C/c2ccccn2)cc1OC", "Potency": "inconclusive: 6.51 µM [activator, single point]"}, {"smiles": "CCCN(CCC)S(=O)(=O)c1ccc(C(=O)OCCN2C(=O)c3cccc4c(N5CCOCC5)ccc(c34)C2=O)cc1", "Potency": "inconclusive: 16.4 µM [inhibitor, partial curve]"}, {"smiles": "CC1CC1C(=O)NCCc1ccc(Cl)cc1", "note": "(centres undefined)", "Potency": "inconclusive: 16.4 µM [activator, partial curve]"}, {"smiles": "S=C(NCCc1ccccn1)Nc1ccc(Cl)cc1", "Potency": "inconclusive: 25.9 µM [activator, single point]"}, {"smiles": "CC(C)(C)c1ccc(N2C(=O)CSC2c2cccnc2)cc1", "note": "(centres undefined)", "Potency": "inactive"}, {"smiles": "Cc1ccc(NS(=O)(=O)c2ccc(C(=O)N3CCC3)cc2)cc1", "Potency": "inactive"}, {"smiles": "CCOC(=O)Cc1csc(NC(=O)c2c(O)c3c(n(CC(C)C)c2=O)CCCC3)n1", "Potency": "inconclusive: 25.9 µM [inhibitor, single point]"}, {"smiles": "Nc1ccc(C(=O)NCCCCCCNC(=O)c2ccc(N)cc2)cc1", "Potency": "inconclusive: 29.1 µM [activator, single point]"}, {"smiles": "C#CCOCCOCCOCCNc1nc(N2CCN(C(=O)[C@H](CCCN=C(N)N)n3cc(C(N)[C@@H](C)CC)nn3)CC2)nc(N2CCN(C(=O)[C@H](CO)n3cc([C@@H](N)C(C)C)nn3)CC2)n1", "note": "(some centres undefined)", "Potency": "inactive"}, {"smiles": "C/C(=N\\NC(=O)c1nnn(-c2nonc2N)c1CN(C)c1ccccc1)c1ccccn1", "Potency": "inconclusive: 6.51 µM [inhibitor, single point]"}, {"smiles": "Cc1cc(NC(=O)COc2cccc(C)c2C)no1", "Potency": "inconclusive: 14.6 µM [activator, partial curve]"}, {"smiles": "Cc1noc(C)c1C(=O)N1CCCC(C(=O)c2cccc(C(F)(F)F)c2)C1", "note": "(centres undefined)", "Potency": "inactive"}, {"smiles": "O=C(NCC(=O)N1CCN(c2ccccc2F)CC1)c1cccs1", "Potency": "inconclusive: 16.4 µM [activator, partial curve]"}, {"smiles": "Cc1cccc(CSCCNC(=O)c2ccc(CN3CCOCC3)cc2)c1", "Potency": "inconclusive: 16.4 µM [inhibitor, partial curve]"}, {"smiles": "c1ccc(C2=Nc3cccnc3C(c3ccccc3)=NN2)cc1", "Potency": "inconclusive: 13 µM [activator, partial curve]"}, {"smiles": "O=c1c2ccc([N+](=O)[O-])cc2ncn1Cc1ccccc1C(F)(F)F", "Potency": "inactive"}, {"smiles": "O=C(CC1C(=O)NCCN1C1CCCC1)NCc1cccc(OC(F)(F)F)c1", "note": "(centres undefined)", "Potency": "inactive"}, {"smiles": "Clc1ccc(OCc2cc(-c3ccccc3)no2)cc1Cl", "Potency": "inconclusive: 18.4 µM [activator, partial curve, poor fit]"}, {"smiles": "CC(=O)c1cnc2cc(-c3ccc(Cl)cc3)nn2c1C", "Potency": "inconclusive: 10.3 µM [activator, partial curve]"}, {"smiles": "Oc1c(/C=N/c2ccccn2)sc2ccccc12", "Potency": "inconclusive: 4.61 µM [activator, full curve]"}, {"smiles": "CCCCCn1c(=S)[nH]c2cc(C(=O)N3CCCC3)ccc2c1=O", "Potency": "inconclusive: 11.6 µM [inhibitor, partial curve, poor fit]"}, {"smiles": "COc1cc(/C=C/C(=O)c2ccccc2O)cc(OC)c1OC", "Potency": "inactive"}, {"smiles": "Cc1ccc(-c2csc(N3C(=N)SCC3=O)n2)cc1", "Potency": "inconclusive: 5.8 µM [activator, full curve]"}, {"smiles": "COCC(=O)N1CCC(Oc2ccc(C(=O)NCCCn3cccn3)cc2)CC1", "Potency": "inactive"}, {"smiles": "Cc1ccc(CNC(=O)c2cn(C)c(=O)c3c2c2ccccc2n3C)o1", "Potency": "inactive"}, {"smiles": "COc1cccc(NC(=O)C(C)OC(=O)CCCNC(=O)c2ccc(Cl)cc2)c1", "note": "(centres undefined)", "Potency": "inconclusive: 25.9 µM [activator, single point]"}, {"smiles": "CCn1c(SCC(=O)N/N=C/c2ccc(O)c(OC)c2)nc2ccccc21", "Potency": "inconclusive: 32.6 µM [inhibitor, single point]"}, {"smiles": "COc1ccc(CC(=O)Nc2cc(Cl)ccc2O)cc1", "Potency": "inconclusive: 18.4 µM [inhibitor, single point]"}, {"smiles": "COc1ccc(S(=O)(=O)N2CCN(C/C=C/c3ccccc3)CC2)cc1NC(C)=O", "Potency": "inconclusive: 25.9 µM [inhibitor, single point]"}, {"smiles": "C=CCSc1nc2c(c(=O)[nH]1)C(C(C)C)C(C#N)=C(N)O2", "note": "(centres undefined)", "Potency": "inconclusive: 16.4 µM [activator, partial curve, poor fit]"}]}]}
